The text below walks through data of article PMC12256266.

Protein sequences, listed by entry. Tags and fused reporters are not part of them.
UniProt P35222: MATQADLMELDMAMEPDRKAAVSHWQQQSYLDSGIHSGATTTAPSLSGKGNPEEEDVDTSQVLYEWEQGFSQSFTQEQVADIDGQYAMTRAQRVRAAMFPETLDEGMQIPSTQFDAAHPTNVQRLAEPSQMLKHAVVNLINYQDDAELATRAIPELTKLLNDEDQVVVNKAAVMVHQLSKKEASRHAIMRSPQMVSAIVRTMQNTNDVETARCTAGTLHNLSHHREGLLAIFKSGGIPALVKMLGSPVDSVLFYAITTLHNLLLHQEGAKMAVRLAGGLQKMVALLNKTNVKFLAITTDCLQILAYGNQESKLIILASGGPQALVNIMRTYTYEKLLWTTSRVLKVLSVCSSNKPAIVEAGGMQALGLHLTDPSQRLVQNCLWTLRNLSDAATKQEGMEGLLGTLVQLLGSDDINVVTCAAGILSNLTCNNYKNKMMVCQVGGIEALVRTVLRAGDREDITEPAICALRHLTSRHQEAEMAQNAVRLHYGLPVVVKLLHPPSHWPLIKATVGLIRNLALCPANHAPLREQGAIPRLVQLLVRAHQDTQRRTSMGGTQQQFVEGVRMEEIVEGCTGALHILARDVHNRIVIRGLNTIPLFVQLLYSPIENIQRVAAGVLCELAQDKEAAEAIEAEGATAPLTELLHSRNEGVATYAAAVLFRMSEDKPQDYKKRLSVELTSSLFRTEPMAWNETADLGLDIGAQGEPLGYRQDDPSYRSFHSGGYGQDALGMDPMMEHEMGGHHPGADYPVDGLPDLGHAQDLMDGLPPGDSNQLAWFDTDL
UniProt Q96DH6: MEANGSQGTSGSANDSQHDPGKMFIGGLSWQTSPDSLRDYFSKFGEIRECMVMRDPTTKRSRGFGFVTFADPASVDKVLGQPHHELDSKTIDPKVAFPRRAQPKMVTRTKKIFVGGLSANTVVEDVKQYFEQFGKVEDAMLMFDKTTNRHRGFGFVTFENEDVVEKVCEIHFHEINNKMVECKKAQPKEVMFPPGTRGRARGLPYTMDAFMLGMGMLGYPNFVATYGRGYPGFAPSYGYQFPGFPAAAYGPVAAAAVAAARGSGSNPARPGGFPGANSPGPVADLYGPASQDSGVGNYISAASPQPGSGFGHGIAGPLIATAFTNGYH

Results are given in words; binding and its absence hold for the method and conditions named. In cells and extracts the contact can be indirect. Here binding means that the protein was enriched with, or labelled near, the bait; the list need not be complete.

This experiment has as its target β-catenin (human (endogenous in K562, HEL and primary AML cells)) (UniProt P35222). The experiment in a line: affinity purification with mass spectrometry; β-catenin Co-IP (relative to IgG Co-IP) from cytosolic fractions of K562 and HEL cells, mass spectrometry; also colorectal SW620 cells (Supplementary Fig. S4).

As for “Musashi-2 (MSI2) (from UniProt Q96DH6 1-328)”, the binding result was “binds”.
